Data as given in publication PMC7854729 (Nature Communications, 2021).
Several values for one entry are separate records, joined by “and”; a condition that tells them apart may be missing. Identical values can stand only once. Like-named read-outs stand apart in the source and are kept apart here. This continues a long series; more values of the same kind are listed elsewhere. Where a SMILES comes first, the peptide text is derived from it.

Biological target: T1, PLpro-WT (Severe acute respiratory syndrome coronavirus 2, UniProt P0DTD1)
T1 construct: PLpro is a domain of Nsp3—a large multidomain protein; made in house; host or cells: E. coli BL21(DE3)-Gold
Assay type: biochemical

In the case of CC(=O)N[C@@H](CC(C)C)C(=O)N[C@@H](CCCCN)C(=O)NCC(=O)NCC(=O)Nc1ccc2c(C)cc(=O)oc2c1 [probe] (HELM PEPTIDE1{[ac].L.K.G.G.[Cc1cc(=O)oc2cc(N[*:1])ccc12]}$$$$V2.0), the “fluorescence normalised to probe only” value (0.3 M PLP, time point 23) is reported as 19.75 and 19.9792 and 21.3125, the fluorescence (0.3 M PLP, time point 24) is reported as 972 and 989 and 1060 and the “fluorescence normalised to probe only” value (0.3 M PLP, time point 24) is reported as 20.25 and 20.6042 and 22.0833. The fluorescence (0.3 M PLP, time point 25) was 1013 and 1022 and 1082, the “fluorescence normalised to probe only” value (0.3 M PLP, time point 25) was 21.1042 and 21.2917 and 22.5417 and the fluorescence (0.3 M PLP, time point 26) was 1028 and 1039 and 1111. The “fluorescence normalised to probe only” value (0.3 M PLP, time point 26) was 21.4167 and 21.6458 and 23.1458, the fluorescence (0.3 M PLP, time point 27) was 1059 and 1068 and 1137 and the “fluorescence normalised to probe only” value (0.3 M PLP, time point 27) was 22.0625 and 22.25 and 23.6875. The fluorescence (0.3 M PLP, time point 28) was 1077 and 1085 and 1174, the “fluorescence normalised to probe only” value (0.3 M PLP, time point 28) was 22.4375 and 22.6042 and 24.4583 and the fluorescence (0.3 M PLP, time point 29) was 1103 and 1112 and 1201. The “fluorescence normalised to probe only” value (0.3 M PLP, time point 29) was 22.9792 and 23.1667 and 25.0208, the fluorescence (0.3 M PLP, time point 30) was 1128 and 1137 and 1218 and the “fluorescence normalised to probe only” value (0.3 M PLP, time point 30) was 23.5 and 23.6875 and 25.375. The fluorescence (0.3 M PLP, time point 31) was 1146 and 1159 and 1248, the “fluorescence normalised to probe only” value (0.3 M PLP, time point 31) was 23.875 and 24.1458 and 26 and the fluorescence (0.3 M PLP, time point 32) was 1167 and 1179 and 1275. For the same molecule, the “fluorescence normalised to probe only” value (0.3 M PLP, time point 32) was 24.3125 and 24.5625 and 26.5625, the fluorescence (0.3 M PLP, time point 33) was 1198 and 1206 and 1310 and the “fluorescence normalised to probe only” value (0.3 M PLP, time point 33) was 24.9583 and 25.125 and 27.2917. The fluorescence (0.3 M PLP, time point 34) was 1215 and 1226 and 1328, the “fluorescence normalised to probe only” value (0.3 M PLP, time point 34) was 25.3125 and 25.5417 and 27.6667 and the fluorescence (0.3 M PLP, time point 35) was 1238 and 1249 and 1339. For the same molecule, the “fluorescence normalised to probe only” value (0.3 M PLP, time point 35) was 25.7917 and 26.0208 and 27.8958, the fluorescence (0.3 M PLP, time point 36) was 1264 and 1272 and 1373 and the “fluorescence normalised to probe only” value (0.3 M PLP, time point 36) was 26.3333 and 26.5 and 28.6042. The fluorescence (0.3 M PLP, time point 37) was 1285 and 1290 and 1393, the “fluorescence normalised to probe only” value (0.3 M PLP, time point 37) was 26.7708 and 26.875 and 29.0208 and the fluorescence (0.3 M PLP, time point 38) was 1306 and 1311 and 1412. For the same molecule, the “fluorescence normalised to probe only” value (0.3 M PLP, time point 38) was 27.2083 and 27.3125 and 29.4167, the fluorescence (0.5 M PLP, time point 1) was 207 and 209 and the “fluorescence normalised to probe only” value (0.5 M PLP, time point 1) was 4.3125 and 4.354. The fluorescence (0.5 M PLP, time point 2) was 318 and 315 and 316, the “fluorescence normalised to probe only” value (0.5 M PLP, time point 2) was 6.625 and 6.5625 and 6.583 and the fluorescence (0.5 M PLP, time point 3) was 425 and 423 and 418. For the same molecule, the “fluorescence normalised to probe only” value (0.5 M PLP, time point 3) was 8.854 and 8.8125 and 8.708, the fluorescence (0.5 M PLP, time point 4) was 524 and 522 and the “fluorescence normalised to probe only” value (0.5 M PLP, time point 4) was 10.9167 and 10.875. For the same molecule, the fluorescence (0.5 M PLP, time point 5) was 617 and 622 and 614, the “fluorescence normalised to probe only” value (0.5 M PLP, time point 5) was 12.8542 and 12.9583 and 12.7917 and the fluorescence (0.5 M PLP, time point 6) was 716 and 715 and 708. For the same molecule, the “fluorescence normalised to probe only” value (0.5 M PLP, time point 6) was 14.9167 and 14.8958 and 14.75, the fluorescence (0.5 M PLP, time point 7) was 805 and 803 and 798 and the “fluorescence normalised to probe only” value (0.5 M PLP, time point 7) was 16.7708 and 16.7292 and 16.625. The “fluorescence normalised to probe only” value (0.5 M PLP, time point 14) was 28.2917 and 27.6458, the fluorescence (0.5 M PLP, time point 15) was 1412 and 1425 and 1395 and the “fluorescence normalised to probe only” value (0.5 M PLP, time point 15) was 29.4167 and 29.6875 and 29.0625. For the same molecule, the fluorescence (0.5 M PLP, time point 16) was 1484 and 1493 and 1454, the “fluorescence normalised to probe only” value (0.5 M PLP, time point 16) was 30.9167 and 31.1042 and 30.2917 and the fluorescence (0.5 M PLP, time point 17) was 1539 and 1557 and 1517. The “fluorescence normalised to probe only” value (0.5 M PLP, time point 17) was 32.0625 and 32.4375 and 31.6042, the fluorescence (0.5 M PLP, time point 18) was 1594 and 1610 and 1580 and the “fluorescence normalised to probe only” value (0.5 M PLP, time point 18) was 33.2083 and 33.5417 and 32.9167. For the same molecule, the fluorescence (0.5 M PLP, time point 19) was 1654 and 1673 and 1634, the “fluorescence normalised to probe only” value (0.5 M PLP, time point 19) was 34.4583 and 34.8542 and 34.0417 and the fluorescence (0.5 M PLP, time point 20) was 1711 and 1730 and 1689. The “fluorescence normalised to probe only” value (0.5 M PLP, time point 20) was 35.6458 and 36.0417 and 35.1875, the fluorescence (0.5 M PLP, time point 21) was 1764 and 1785 and 1742 and the “fluorescence normalised to probe only” value (0.5 M PLP, time point 21) was 36.75 and 37.1875 and 36.2917. The fluorescence (0.5 M PLP, time point 22) was 1821 and 1835 and 1797, the “fluorescence normalised to probe only” value (0.5 M PLP, time point 22) was 37.9375 and 38.2292 and 37.4375 and the fluorescence (0.5 M PLP, time point 23) was 1880 and 1890 and 1848. For the same molecule, the “fluorescence normalised to probe only” value (0.5 M PLP, time point 23) was 39.1667 and 39.375 and 38.5, the fluorescence (0.5 M PLP, time point 24) was 1924 and 1943 and 1901 and the “fluorescence normalised to probe only” value (0.5 M PLP, time point 24) was 40.0833 and 40.4792 and 39.6042. For the same molecule, the fluorescence (0.5 M PLP, time point 25) was 1964 and 1992 and 1948, the “fluorescence normalised to probe only” value (0.5 M PLP, time point 25) was 40.9167 and 41.5 and 40.5833 and the fluorescence (0.5 M PLP, time point 26) was 2017 and 2029 and 1997. The “fluorescence normalised to probe only” value (0.5 M PLP, time point 26) was 42.0208 and 42.2708 and 41.6042, the fluorescence (0.5 M PLP, time point 27) was 2061 and 2083 and 2030 and the “fluorescence normalised to probe only” value (0.5 M PLP, time point 27) was 42.9375 and 43.3958 and 42.2917. The fluorescence (0.5 M PLP, time point 28) was 2102 and 2125 and 2079, the “fluorescence normalised to probe only” value (0.5 M PLP, time point 28) was 43.7917 and 44.2708 and 43.3125 and the fluorescence (0.5 M PLP, time point 29) was 2139 and 2169 and 2111. For the same molecule, the “fluorescence normalised to probe only” value (0.5 M PLP, time point 29) was 44.5625 and 45.1875 and 43.9792, the fluorescence (0.5 M PLP, time point 30) was 2187 and 2206 and 2147 and the “fluorescence normalised to probe only” value (0.5 M PLP, time point 30) was 45.5625 and 45.9583 and 44.7292.
